From patent US20250283871A1, “COMPOSITIONS AND METHODS FOR MODULATING THE INTERACTION BETWEEN SS18-SSX FUSION ONCOPROTEIN AND NUCLEOSOMES” (Dana-Farber Cancer Institute, Inc., priority 2020, published 2025)

B1: POLR3A (protein, UniProt O14802 1-1390, looked up)
DNA-directed RNA polymerase …: MVKEQFRETDVAKKISHICFGMKSPEEMRQQAHIQVVSKNLYSQDNQHAPLLYGVLDHRMGTSEKDRPCETCGKNLADCLGHYGYIDLELPCFHVGYFRAVIGILQMICKTCCHIMLSQEEKKQFLDYLKRPGLTYLQKRGLKKKISDKCRKKNICHHCGAFNGTVKKCGLLKIIHEKYKTNKKVVDPIVSNFLQSFETAIEHNKEVEPLLGRAQENLNPLVVLNLFKRIPAEDVPLLLMNPEAGKPSDLILTRLLVPPLCIRPSVVSDLKSGTNEDDLTMKLTEIIFLNDVIKKHRISGAKTQMIMEDWDFLQLQCALYINSELSGIPLNMAPKKWTRGFVQRLKGKQGRFRGNLSGKRVDFSGRTVISPDPNLRIDEVAVPVHVAKILTFPEKVNKANINFLRKLVQNGPEVHPGANFIQQRHTQMKRFLKYGNREKMAQELKYGDIVERHLIDGDVVLFNRQPSLHKLSIMAHLARVKPHRTFRFNECVCTPYNADFDGDEMNLHLPQTEEAKAEALVLMGTKANLVTPRNGEPLIAAIQDFLTGAYLLTLKDTFFDRAKACQIIASILVGKDEKIKVRLPPPTILKPVTLWTGKQIFSVILRPSDDNPVRANLRTKGKQYCGKGEDLCANDSYVTIQNSELMSGSMDKGTLGSGSKNNIFYILLRDWGQNEAADAMSRLARLAPVYLSNRGFSIGIGDVTPGQGLLKAKYELLNAGYKKCDEYIEALNTGKLQQQPGCTAEETLEALILKELSVIRDHAGSACLRELDKSNSPLTMALCGSKGSFINISQMIACVGQQAISGSRVPDGFENRSLPHFEKHSKLPAAKGFVANSFYSGLTPTEFFFHTMAGREGLVDTAVKTAETGYMQRRLVKSLEDLCSQYDLTVRSSTGDIIQFIYGGDGLDPAAMEGKDEPLEFKRVLDNIKAVFPCPSEPALSKNELILTTESIMKKSEFLCCQDSFLQEIKKFIKGVSEKIKKTRDKYGINDNGTTEPRVLYQLDRITPTQVEKFLETCRDKYMRAQMEPGSAVGALCAQSIGEPGTQMTLKTFHFAGVASMNITLGVPRIKEIINASKAISTPIITAQLDKDDDADYARLVKGRIEKTLLGEISEYIEEVFLPDDCFILVKLSLERIRLLRLEVNAETVRYSICTSKLRVKPGDVAVHGEAVVCVTPRENSKSSMYYVLQFLKEDLPKVVVQGIPEVSRAVIHIDEQSGKEKYKLLVEGDNLRAVMATHGVKGTRTTSNNTYEVEKTLGIEAARTTIINEIQYTMVNHGMSIDRRHVMLLSDLMTYKGEVLGITRFGLAKMKESVLMLASFEKTADHLFDAAYFGQKDSVCGVSECIIMGIPMNIGTGLFKLLHKADRDPNPPKRPLIFDTNEFHIPLVT
B2: COPG2 (protein, UniProt Q9UBF2 1-871, looked up)
Coatomer subunit gamma-2: MIKKFDKKDEESGSGSNPFQHLEKSAVLQEARIFNETPINPRRCLHILTKILYLLNQGEHFGTTEATEAFFAMTRLFQSNDQTLRRMCYLTIKEMATISEDVIIVTSSLTKDMTGKEDVYRGPAIRALCRITDGTMLQAIERYMKQAIVDKVSSVSSSALVSSLHMMKISYDVVKRWINEAQEAASSDNIMVQYHALGVLYHLRKNDRLAVSKMLNKFTKSGLKSQFAYCMLIRIASRLLKETEDGHESPLFDFIESCLRNKHEMVIYEAASAIIHLPNCTARELAPAVSVLQLFCSSPKPALRYAAVRTLNKVAMKHPSAVTACNLDLENLITDSNRSIATLAITTLLKTGSESSVDRLMKQISSFVSEISDEFKVVVVQAISALCQKYPRKHSVMMTFLSNMLRDDGGFEYKRAIVDCIISIVEENPESKEAGLAHLCEFIEDCEHTVLATKILHLLGKEGPRTPVPSKYIRFIFNRVVLENEAVRAAAVSALAKFGAQNESLLPSILVLLQRCMMDTDDEVRDRATFYLNVLQQRQMALNATYIFNGLTVSVPGMEKALHQYTLEPSEKPFDMKSIPLAMAPVFEQKAEITLVATKPEKLAPSRQDIFQEQLAAIPEFLNIGPLFKSSEPVQLTEAETEYFVRCIKHMFTNHIVFQFDCTNTLNDQLLEKVTVQMEPSDSYEVLSCIPAPSLPYNQPGICYTLVRLPDDDPTAVAGSFSCTMKFTVRDCDPNTGVPDEDGYDDEYVLEDLEVTVSDHIQKVLKPNFAAAWEEVGDTFEKEETFALSSTKTLEEAVNNIITFLGMQPCERSDKVPENKNSHSLYLAGIFRGGYDLLVRSRLALADGVTMQVTVRSKERTPVDVILASVG
B3: CDIPT (protein, UniProt O14735 1-213, looked up)
CDP-diacylglycerol--inositol …: MPDENIFLFVPNLIGYARIVFAIISFYFMPCCPLTASSFYLLSGLLDAFDGHAARALNQGTRFGAMLDMLTDRCSTMCLLVNLALLYPGATLFFQISMSLDVASHWLHLHSSVVRGSESHKMIDLSGNPVLRIYYTSRPALFTLCAGNELFYCLLYLFHFSEGPLVGSVGLFRMGLWVTAPIALLKSLISVIHLITAARNMAALDAADRAKKK
B4: ERAP1 (protein, UniProt Q9NZ08 1-941, looked up)
Endoplasmic reticulum …: MVFLPLKWSLATMSFLLSSLLALLTVSTPSWCQSTEASPKRSDGTPFPWNKIRLPEYVIPVHYDLLIHANLTTLTFWGTTKVEITASQPTSTIILHSHHLQISRATLRKGAGERLSEEPLQVLEHPRQEQIALLAPEPLLVGLPYTVVIHYAGNLSETFHGFYKSTYRTKEGELRILASTQFEPTAARMAFPCFDEPAFKASFSIKIRREPRHLAISNMPLVKSVTVAEGLIEDHFDVTVKMSTYLVAFIISDFESVSKITKSGVKVSVYAVPDKINQADYALDAAVTLLEFYEDYFSIPYPLPKQDLAAIPDFQSGAMENWGLTTYRESALLFDAEKSSASSKLGITMTVAHELAHQWFGNLVTMEWWNDLWLNEGFAKFMEFVSVSVTHPELKVGDYFFGKCFDAMEVDALNSSHPVSTPVENPAQIREMFDDVSYDKGACILNMLREYLSADAFKSGIVQYLQKHSYKNTKNEDLWDSMASICPTDGVKGMDGFCSRSQHSSSSSHWHQEGVDVKTMMNTWTLQKGFPLITITVRGRNVHMKQEHYMKGSDGAPDTGYLWHVPLTFITSKSDMVHRFLLKTKTDVLILPEEVEWIKFNVGMNGYYIVHYEDDGWDSLTGLLKGTHTAVSSNDRASLINNAFQLVSIGKLSIEKALDLSLYLKHETEIMPVFQGLNELIPMYKLMEKRDMNEVETQFKAFLIRLLRDLIDKQTWTDEGSVSERMLRSQLLLLACVHNYQPCVQRAEGYFRKWKESNGNLSLPVDVTLAVFAVGAQSTEGWDFLYSKYQFSLSSTEKSQIEFALCRTQNKEKLQWLLDESFKGDKIKTQEFPQILTLIGRNPVGYPLAWQFLRKNWNKLVQKFELGSSSIAHMVMGTTNQFSTRTRLEEVKGFFSSLKENGSQLRCVQQTIETIEENIGWMDKNFDKIRVWLQSEKLERM
B5: HSDL1 (protein, UniProt Q3SXM5 2-330, looked up)
Inactive hydroxysteroid …: AAVDSFYLLYREIARSCNCYMEALALVGAWYTARKSITVICDFYSLIRLHFIPRLGSRADLIKQYGRWAVVSGATDGIGKAYAEELASRGLNIILISRNEEKLQVVAKDIADTYKVETDIIVADFSSGREIYLPIREALKDKDVGILVNNVGVFYPYPQYFTQLSEDKLWDIINVNIAAASLMVHVVLPGMVERKKGAIVTISSGSCCKPTPQLAAFSASKAYLDHFSRALQYEYASKGIFVQSLIPFYVATSMTAPSNFLHRCSWLVPSPKVYAHHAVSTLGISKRTTGYWSHSIQFLFAQYMPEWLWVWGANILNRSLRKEALSCTA
B6: STT3B (protein, UniProt Q8TCJ2 2-826, looked up)
Dolichyl-diphosphooligosacchar …: AEPSAPESKHKSSLNSSPWSGLMALGNSRHGHHGPGAQCAHKAAGGAAPPKPAPAGLSGGLSQPAGWQSLLSFTILFLAWLAGFSSRLFAVIRFESIIHEFDPWFNYRSTHHLASHGFYEFLNWFDERAWYPLGRIVGGTVYPGLMITAGLIHWILNTLNITVHIRDVCVFLAPTFSGLTSISTFLLTRELWNQGAGLLAACFIAIVPGYISRSVAGSFDNEGIAIFALQFTYYLWVKSVKTGSVFWTMCCCLSYFYMVSAWGGYVFIINLIPLHVFVLLLMQRYSKRVYIAYSTFYIVGLILSMQIPFVGFQPIRTSEHMAAAGVFALLQAYAFLQYLRDRLTKQEFQTLFFLGVSLAAGAVFLSVIYLTYTGYIAPWSGRFYSLWDTGYAKIHIPIIASVSEHQPTTWVSFFFDLHILVCTFPAGLWFCIKNINDERVFVALYAISAVYFAGVMVRLMLTLTPVVCMLSAIAFSNVFEHYLGDDMKRENPPVEDSSDEDDKRNQGNLYDKAGKVRKHATEQEKTEEGLGPNIKSIVTMLMLMLLMMFAVHCTWVTSNAYSSPSVVLASYNHDGTRNILDDFREAYFWLRQNTDEHARVMSWWDYGYQIAGMANRTTLVDNNTWNNSHIALVGKAMSSNETAAYKIMRTLDVDYVLVIFGGVIGYSGDDINKFLWMVRIAEGEHPKDIRESDYFTPQGEFRVDKAGSPTLLNCLMYKMSYYRFGEMQLDFRTPPGFDRTRNAEIGNKDIKFKHLEEAFTSEHWLVRIYKVKAPDNRETLDHKPRVTNIFPKQKYLSKKTTKRKRGYIKNKLVFKKGKKISKKTV
B7: ZIC2 (protein, UniProt O95409 1-532, looked up)
Zinc finger protein ZIC 2: MLLDAGPQFPAIGVGSFARHHHHSAAAAAAAAAEMQDRELSLAAAQNGFVDSAAAHMGAFKLNPGAHELSPGQSSAFTSQGPGAYPGSAAAAAAAAALGPHAAHVGSYSGPPFNSTRDFLFRSRGFGDSAPGGGQHGLFGPGAGGLHHAHSDAQGHLLFPGLPEQHGPHGSQNVLNGQMRLGLPGEVFGRSEQYRQVASPRTDPYSAAQLHNQYGPMNMNMGMNMAAAAAHHHHHHHHHPGAFFRYMRQQCIKQELICKWIDPEQLSNPKKSCNKTFSTMHELVTHVSVEHVGGPEQSNHVCFWEECPREGKPFKAKYKLVNHIRVHTGEKPFPCPFPGCGKVFARSENLKIHKRTHTGEKPFQCEFEGCDRRFANSSDRKKHMHVHTSDKPYLCKMCDKSYTHPSSLRKHMKVHESSPQGSESSPAASSGYESSTPPGLVSPSAEPQSSSNLSPAAAAAAAAAAAAAAAVSAVHRGGGSGSGGAGGGSGGGSGSGGGGGGAGGGGGGSSGGGSGTAGGHSGLSSNFNEWYV

Test system: BAF complex subunits and histone proteins
Test: Mass spectrometry proteomics of purified HA-SS18 WT and HA-SS18-SSX1 complexes (Tables 5A-5E)
Design: species or system human
Details: HA-SS18SSX1_NE_peptides (Table 5B); HA-SS18-SSX1 BAF complex purification from soluble nuclear extract, HEK-293T

Total (peptides), 1:
B1
B2
B3
B4
B5
B6
B7

Unique (peptides), 1:
B1
B2
B3
B4
B5
B6
B7

Same assay, conditions: HA-SS18WT_NE_peptides: proteins co-purified with HA-SS18 WT from nuclear extract (NE), HEK-293T

Total (peptides), 1:
B3
B6

Unique (peptides), 1:
B3
B6
